Laboratory results: US12102637B2, “Pharmaceutical formulations for treating endometriosis, uterine fibroids, polycystic ovary syndrome or adenomyosis” (AbbVie Inc., priority 2017, dated 2024)

Test system: menstrual bleeding
Assay: Effects on menstrual bleeding patterns (electronic daily diary; bleeding/spotting days, intensity, amenorrhea, resumption of menses)
Assay type: in vivo, human

COc1cccc(-c2c(C)n(Cc3c(F)cccc3C(F)(F)F)c(=O)n(C[C@H](NCCCC(=O)O)c3ccccc3)c2=O)c1F [Compound A, 4-((R)-2-[5-(2-fluoro-3-methoxy-phenyl)-3-(2-fluoro-6-trifluoromethyl-benzyl)-4-methyl-2,6-dioxo-3,6-dihydro-2H-pyrimidin-1-yl]-1-phenyl-ethylamino)-butyric acid]
resumption of menses after stopping, % of women (after 6 months of therapy, 150 mg once daily, within 1 month): 59% | resumption of menses after stopping, % of women (after 6 months of therapy, 150 mg once daily, within 2 months): 87% | resumption of menses after stopping, % of women (after 6 months of therapy, 150 mg once daily, within 6 months): 95% | resumption of menses after stopping, % of women (after 6 months of therapy, 200 mg twice daily, within 1 month): 60% | resumption of menses after stopping, % of women (after 6 months of therapy, 200 mg twice daily, within 2 months): 88% | resumption of menses after stopping, % of women (after 6 months of therapy, 200 mg twice daily, within 6 months): 97% | resumption of menses after stopping, % of women (after 12 months of therapy, 150 mg once daily, within 1 month): 77% | resumption of menses after stopping, % of women (after 12 months of therapy, 150 mg once daily, within 2 months): 95% | resumption of menses after stopping, % of women (after 12 months of therapy, 150 mg once daily, within 6 months): 98% | resumption of menses after stopping, % of women (after 12 months of therapy, 200 mg twice daily, within 1 month): 55% | resumption of menses after stopping, % of women (after 12 months of therapy, 200 mg twice daily, within 2 months): 91% | resumption of menses after stopping, % of women (after 12 months of therapy, 200 mg twice daily, within 6 months): 96%
